# Source: PubChem BioAssay AID1347423 (Functional Genomics Laboratory (NCATS/FGL), 2020)
# The campaign covered roughly 52,000 sequences. About 210 (0.4%) were called active.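 The calls were made as follows: active = gene whose silencing raises cell survival under the drug, median off-target-corrected z-score across its silencing RNAs 2 or more; inactive = the rest.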 This is one part of the list.
# Assay: Resistance to Poly (ADP-Ribose) Polymerase inhibitor: Gene Identification via Genome-wide siRNA Screen
# Settings: mouse BRCA2 R2336H ES cells, olaparib, CellTiter-Glo viability; active compounds read high
# Excerpt: The role of Poly (ADP-Ribose) Polymerase (PARP) proteins in DNA repair has been elegantly utilized for the synthetic lethality-based treatment of BRCA-deficient tumors by PARP inhibitors. PARP inhibitors are now being used for treatment of BRCA-deficient breast and ovarian cancers. […] While several mechanisms of drug resistance have been identified, majority of these tumors develop drug resistance due to unknown causes. To identified novel regulators of chemo-resistance in BRCA2-mutated cells, we performed a genome wide siRNA library screen. We have found ES cells expressing a hypomorphic allele of BRCA2 to be hypersensitive to PAPP inhibitors (such as olaparib). We used ES cells expressing a mutant allele of BRCA2 that has a single amino acid substitution at position 2336 (arginine to histidine, R2336H). The screen was conducted using an Ambion (Thermo) Silencer Mouse Genome siRNA collection. The library targets 17,575 mouse genes with 3 siRNAs per gene. TET2 (E130014J05Rik) was identified as a top candidate.
# Transfections were performed in 384 well plates (Corning 3707). Plates were coated with 0.1% gelatin in H2O overnight at ambient temperature. Gelatin solution was aspirated (BioTek EL406) and siRNAs were printed using a Bravo VPrep liquid handler integrated within a BioCel automation platform (Agilent). Cell viability was measured using CellTiter Glo (Promega). For transfections, […] of serum free media containing Lipofectamine RNAiMax […] was added to wells containing siRNA (0.8pmol). Lipid and siRNA were allowed to complex for 45 min at ambient temperature before addition of 1000 cells in DMEM, 30% FBS to yield final transfection mixtures containing 20 nM siRNA in DMEM, 15% FBS. PARPi (olaparib, AZD2281) was added 48 h post-transfection (500 nM) and viability (CellTiter Glo, Promega) was assayed 72 h later on a PerkinElmer Envision 2104 Multilabel plate reader. Ambion Silencer Select Negative Control #2 was incorporated on all screening plates (16 wells) and the median negative control value on each plate was used for normalization. An siRNA targeting Trp53 was used as a positive control. This control yielded a median protective effect of ~1.9 fold versus negative control throughout the screen. The median absolute deviation (MAD) based z-score was calculated for each siRNA. Genes were then ranked by taking the median value for all siRNAs tested against a given gene. Scores were also adjusted for seed-based off-target effects to help deprioritize likely false positives.
row,Sequence,z-score
1,GGGCACAGGAUCGUAUGAATT against Freq,inactive: 1.3
2,GGCAAUUCUGGAGGCUCUUTT against Ubqln1,inactive: 0.854
3,GCUAAAAACAACUAGGAAATT against D430033N04Rik,inactive: 0.998
4,CAGCAUCAAGCAGAAAAGATT against LOC432825,inactive: -0.316
5,GGGCUUCAGUGAGAACGAUTT against 1500035H01Rik,inactive: -2.36
6,GCAUGGCCAAUCUACCCUUTT against Bcl9l,inactive: 1.51
7,CCUUCUAAUUAUCACCAAATT against Arhgap18,inactive: 0.633
8,GCAGAAACCUCAUCACUAATT against Bambi,inactive: 0.591
9,CCAUCUACAAGUGUCCUUATT against Zfp276,inactive: -0.6
10,GAGAUGUCGAUGCAAAUUCTT against Fxyd1,inactive: -0.353
11,GGACAUUUCACAAGUCAAATT against Tceb1,inactive: 1.42
12,GGUGAAUGAAACUUUCUGUTT against Adamts13,inactive: 1.26
13,GGAGAAACCAGCUAAAGGATT against Car9,inactive: -0.266
14,GGCUUUGUUAGUCUAUGACTT against 2610524A10Rik,inactive: 1.22
15,GGUGCAGAGCUGGUUGACUTT against 4930542G03Rik,inactive: -2.67
16,GGUUCUCGUGUGGCACACUTT against B3gat2,inactive: -0.05
17,GCAGCUGAAAAUCGAGAACTT against 4933409I22,inactive: -1.18
18,CCACACUCUUGGAAUUACGTT against Gsg1,inactive: -0.337
19,CCUCGUUCCAAUCAAGCCUTT against Ftsj3,inactive: -0.215
20,GGAGGAAGCUCAUCUAUGATT against Rpl7,inactive: -3.14
21,GGAAAUUACGCAUAUCCAUTT against Cntn1,inactive: -0.857
22,GGUCAUCAGUGAGCUGAAUTT against Rplp2,inactive: -2.78
23,GGAAAGACAAAGAACUCUATT against 1500011L16Rik,inactive: -0.589
24,GCGAAUUGACAACUCCCUCTT against 3010027G13Rik,inactive: -0.35
25,GGAAAUGAAUCUGAUCCUGTT against 9130231C15Rik,inactive: -0.434
26,GGUGUUAGGAAGUCACAUUTT against Tas2r109,inactive: -0.0271

row,Sequence,z-score
1,GCGAAAAAUUCGGCAGCAGTT against 9430010O03Rik,inactive: 1.04
2,CCGAGAAAUGGAAACUUAGTT against MGC91194,inactive: -0.963
3,GGAAAAGAAAGGAACACUGTT against Defb13,inactive: -0.226
4,GGACUUCUUUUGAAUCGGATT against Pex14,inactive: -0.655
5,GCUAAUGCACCAAUGUGAGTT against Pafah1b3,inactive: -1.11
6,CCCUCAGAUCUUUCAGUCUTT against E330040A16Rik,inactive: -1.2
7,GCUAUCUCGGUGUCAACUUTT against Aqp7,inactive: 2.03
8,GGCUCCUCUCCAAGAAUAUTT against C330019G07Rik,inactive: -1.04
9,CCAAUGUUUGAAUUCUUCGTT against Nudt1,inactive: -0.322
10,GCCCUAUCCACCCAUUGAGTT against Hs3st1,inactive: -1.41
11,GGUGUUCUACUGUGCAUUATT against 9330132A10Rik,inactive: -0.505
12,GCUCAAAACGCACGUGAAGTT against Wrb,inactive: -0.106
13,GGUAUGGUAUUGUGUAUUUTT against Cyp2c38,inactive: -0.409
14,GGACAUCAUUACAAAGAUGTT against Rgs6,inactive: -0.00923
15,GGCAUGUUUCUACAUCUUATT against Rgs12,inactive: 0.679
16,CGUGCACUGGAGAUUCCAUTT against Slc41a1,inactive: -1.37
17,GCAAUGGUUCUCUUCAACCTT against Ppp3cb,inactive: -0.712
18,GGAAGCGUGGAAGUCUACGTT against Kcnj16,inactive: -0.609
19,GGAAGAAUUUGACAACCGCTT against Mrps18c,inactive: -0.103
20,GCGUAAGCAGCAAGAUGGATT against Ash2l,inactive: -1.26
21,GCUGAGAAUCGUUUAAAUGTT against 2010321J07Rik,inactive: -0.924
22,CCCACUAAGAAACAAUCUATT against Gp1ba,inactive: 0.484
23,GGAUUCUUUCCAACAGAUUTT against Wwp2,inactive: -1.21
24,GGUCAUGGUUAUUUUGUUATT against AI194308,inactive: 0.18
25,GGAAAGAAAAAAGAUGGUCTT against Riok1,inactive: -1.05
26,CGCCACAGACAUUCAGUUATT against Sec23ip,inactive: -0.23

row,Sequence,z-score
1,GGUGCAAACAGACACCAGATT against Dct,inactive: 0.552
2,GCGAACAGAAAAGACCAAUTT against Col4a5,inactive: 1.11
3,UGGACUUGCUUCUCACAUCTT against Olfr694,inactive: 2.1
4,GGAUUGUGCUAACCUGCUGTT against 1600014C10Rik,inactive: -0.419
5,GGAGCUUAUAAGAAAUGGGTT against 9030221A05Rik,inactive: -0.119
6,GGAAUAGUCAACUUGGUAUTT against Kntc2,inactive: -3.08
7,GGAGGAAGAAACAGACAUCTT against Nup37,inactive: -2.03
8,GCUUCAGGAUAUUGUAAAGTT against Olfr1459,inactive: -0.943
9,GGCAACCAAAGUUAGUGUGTT against Ifi16,inactive: -0.238
10,GCUUGAAUGUUGAGUGGAGTT against Mup3,inactive: -0.377
11,GCUCAGAUGUAUGUAUUCATT against Olfr247,inactive: 3.79
12,GGCUUAGAGCUUCCUCUAATT against Adprhl1,inactive: 0.6
13,GCAGAUAGAGAUGAAGCUGTT against Phactr3,inactive: 0.217
14,GGGAACUCAAAGAAGAGAGTT against 2210402C18Rik,inactive: -1.19
15,CCAAUUCCUCUCAAUGUCATT against 2310002B06Rik,inactive: -0.618
16,CGUUGCUGGUCCAACAGAATT against BC032925,inactive: -0.554
17,GGAGGUUAUCAGAUAUGCATT against Edar,inactive: 0.929
18,GGUUCUCCGAACUCUGUUGTT against AW049900,inactive: -1.88
19,CGUGAAGAAAAACGGGUUUTT against Snrpn,inactive: -1.24
20,GGAUGAAGACGACUAUCCCTT against Lat,inactive: 0.605
21,GGUAUCCUGUAACUACUCUTT against D130020L05Rik,inactive: -1.48
22,CCUGAAGGGUCUGGCAAAATT against C630007C17Rik,inactive: -2.44
23,GCACUAGCAGACUAGGUGATT against A630026F21Rik,inactive: -0.263
24,GCGAGAUUCUUGCUUACUCTT against 2310009N05Rik,inactive: -0.529
25,CGAGAUCUCCGUCGAGUAATT against Brf2,inactive: -0.777
26,GGGAAUCUUCCGUUUAAGUTT against Pcdhga10,inactive: -0.344

row,Sequence,z-score
1,GCUUACCUUUGGAUUCAAATT against Cd68,inactive: 1.91
2,CGAAAGUACCAUGCCUACATT against Clecsf5,inactive: -0.47
3,GCGGGAACAAGUUGAUAGATT against Pspc1,inactive: -0.734
4,GGCUUUUAUCCCAACAGUGTT against Mbnl3,inactive: -0.716
5,CCUUAUUCCACCCAUUUUCTT against Rai3,inactive: 0.67
6,ACAUUGUAAUUCUCACCGUTT against Olfr1322,inactive: -0.285
7,GGCAGCUGAAAGAAGAUCUTT against Dffa,inactive: 0.127
8,GGACUAUUGUCUCAUUUGATT against Olfr1189,inactive: 0.441
9,GGAAUGUCUCCUGUCUGUGTT against Pttg1ip,inactive: -2.56
10,GGAAGUGAGGAACUGUGUCTT against Prodh2,inactive: 2.16
11,GGAUCAGCUUGUUCUCAGATT against Plpcd,inactive: 0.408
12,GGUCACAUCGUCCUUACAGTT against Rps6ka4,inactive: -0.0463
13,GGCUCAGAAAAUUGAUCGATT against Pscd2,inactive: 1.11
14,GGAAGCCAUGACAUUCAAGTT against Zfp286,inactive: 1.43
15,GGCUACAGCAGGAGAAUCATT against BC038613,inactive: -2.14
16,GGAUAGUCUCAGUAACUAUTT against Grin2a,inactive: -0.516
17,GGACCCUCCAACUGUAAAUTT against Gtl2,inactive: -0.638
18,GGAGGAUCAGUGAGAUUAATT against Wbp4,inactive: -1.59
19,UUAUGUGGCACAAAUAAAUTT against Olfr138,inactive: -0.814
20,GGACAAGAUGUUGAGUAUUTT against Plrg1,inactive: -1.94
21,GGAUUGACAGUGGUCUAUATT against Copz1,inactive: -3.11
22,GCCAACCUUCGUAAGACACTT against Dgkz,inactive: 0.191
23,GGCAACCAUAGACGAUGAATT against Rerg,inactive: 0.934
24,GGUACAAACGUAAGGCCUATT against Leng1,inactive: 1.02
25,GGUCAUGUGUGGUUACAUUTT against Depdc5,inactive: -0.656
26,GGUGAGCAAAGCCAAGAAGTT against Sgpl1,inactive: -0.914

# Five entries drawn at random from the list so far:
row,Sequence,z-score
3,GCGGGAACAAGUUGAUAGATT against Pspc1,inactive: -0.734
13,GGCUCAGAAAAUUGAUCGATT against Pscd2,inactive: 1.11
14,GGAAGCCAUGACAUUCAAGTT against Zfp286,inactive: 1.43
4,GGCUUUUAUCCCAACAGUGTT against Mbnl3,inactive: -0.716
21,GGAUUGACAGUGGUCUAUATT against Copz1,inactive: -3.11
